Reference: patent US5948406A, “Immunogens, antibodies formed therefrom, and coating antigens useful in a diacylhydrazine immunoassay method” (Rohm and Haas Company, priority 1997, dated 1999)
Values joined by “and” are separate entries in the source; they are usually repeats but may differ in a detail not shown here. Equal entries are not always repeated.

What was measured:
[1] = tested on: ^2651 IgG (coating antibody); test: Direct assay (competition with 2651-HRP for immobilized ^2651 IgG coating antibody); assay type: binding, rabbit
From the text: (§1) As used herein the term "IC50 " is defined as the concentration of the inhibitor required to reduce the absorbance to one-half the absorbance measured when no inhibitor was present. This determination is accomplished by plotting the percent (%) activity remaining versus the concentration of the inhibitor where the percent (%) activity remaining is given by:
(§2) % activity=(Ao -Ai /Ao)×100
(§3) where Ao is the measured absorbance when no inhibitor is present and Ai is the measured absorbance at the i^th concentration of inhibitor. The percent inhibition is then given by the relationship 100-(% activity).
(§4) Sensitivity in ng is calculated from the concentration of the inhibitor determined from regression analysis of the standard deviations of the replicate analyses of the standard concentrations as described in the equation: […]
(§5) where S is the sensitivity in ng, Yint is the Y-intercept of the regression line from the standard deviations of the replicate analyses in absorbance units, m is the slope of the regression line in absorbance units per ng/ml and V is the volume of sample applied to the microtiter plate in ml.
A microplate was coated with ^2651 IgG. Starting with column 1, 100 μl of 10 μg/ml ^2651 IgG were added to each well and 1:2 serial dilutions made across the plate. The plate was sealed and stored at 4° C. until ready to use. After emptying, the plate was washed with 0.01% Tween 20 in PBS and blocked with 1% BSA in PBS for about 1 hour at room temperature. After blocking, the plate was emptied and 150 μl PBS added to each well. Then 50 μl of 2651-HRP dilutions were added down the plate starting with 10 μg/ml and continuing with 1:2 dilutions down the plate. After a 1 hour room temperature incubation, the plate was washed as before and 150 μl 1-Step® Slow-TMB (peroxidase substrate from Pierce Chemical Co.) was added to each well. After one hour development, 150 μl of 1N H2 SO4 was added to stop the reaction and the absorbance of each well measured at 450 nm with the Dynatech MR5000 Microplate Reader. Controls included wells with no coating antibody and wells in which no 2651-HRP were added. A ^2651 IgG coating antibody concentration of 0.625 μg/ml and a 2561-HRP concentration of 1.25 μg/ml were determined to be the optimum concentration for use with 1-Step® Slow-TMB substrate.
The wells of a microplate were coated with 100 μl each of 0.625 μg/ml ^2651 IgG. One row was left uncoated as a control. The plate was kept at 4° C. overnight. The following day the plate was washed with 0.01% Tween 20 polysorbate in PBS and blocked with 1% BSA in PBS for at least 30 minutes. Standard solutions of RH5992, RH2651, RH2703, and RH2485 were made from 1 mg/ml stock solutions. Standard solutions of RH0345 were prepared from a 0.1 ng/ml, 0.5 ng/ml, 1 ng/ml, 5 ng/ml, 10 ng/ml, 50 ng/ml, and 100 ng/ml. After the blocking lo solution was emptied, 150 μl of the standards were added to the appropriate wells. For the zero control 150 μl of PBS was added. After a 45 minute incubation at room temperature, 50 μl of 1.25 μg/ml 2651-HRP were added to each well and the plate agitated to mix the contents. […] After incubation for 45 minutes at room temperature, the plate was washed as before and 150 μl 2651-HRP was added to each well and the plate agitated to mix the contents. […] After incubation for 45 minutes at room temperature, the plate was washed as before and 150 μl Step 1® Slow TMB added to each well. After 2 hours at room temperature, 150 μl 1N H2 SO4 was added to each well and the absorbance read at 450 nm with the Dynatech MR5000 Microplate Reader.
FIG. 16a illustrates a typical curve generated from the assay. The linear portion of the curve is visualized between 0.01 ng/ml and 10 ng/ml. A typical standard curve in the linear range of the assay is illustrated by FIG. 16b using inverse absorbances to generate a positive slope. The limit of detection was calculated as 0.096 ng/ml and the sensitivity calculated as 0.005 ng for RH5992.

[2] = tested on: Protein A purified IgG (rabbit antibodies to diacyl hydrazines); test: Indirect immunoassay (inhibition of purified IgG binding to RH2703-BSA coating antigen); conditions: indirect assay; for Detection limit: three times the background noise
From the text: as §1, §2, §3
The percent cross reactivity was derived by the equation: […]
where IC50,5992 is the IC50 concentration for RH5992 as determined above and IC50,analog is the IC50 concentration of the analog, i.e., RH2703, RH2651, and RH0345.
as §4, §5
RH2703-BSA was used as the coating antigen. The concentration required to give a readable response (0.3-0.5 absorbance units @ 410 nm) in the presence of the minimum quantity of antigen (RH2703) was optimized in the presence of a constant amount of protein A purified IgG (10 μl of a 20 μg/ml solution, 100 ng/well) by a checkerboard type assay (see Voller et al, Bull of World Health Organization, 53, 35 (1976)). The concentration of the Protein A purified IgG had been previously optimized in the presence of a constant amount of coating antigen (RH2703-BSA, 100 μl of a 10 μg/ml solution) to give a readable response to the minimum amount of RH5992.
Antibody concentration was optimized to be approximately 20 μg/ml (100 ng per micro well) and the coating antigen was optimized to be 25 ng/ml or 2.5 ng per micro well. When converted to a molar basis and assuming a hapten/protein binding ratio of 55, the hapten is in a three-fold molar excess of the IgG added.
The percent inhibition for RH2703, RH2651, RH5992, RH0345 and RH2485 were determined to the protein IgG in the presence of the optimized concentration of RH2703-BSA coating antigen. Each test substance was assayed at seven concentrations ranging from no test substance 0 ng/ml to 1000 ng/ml. The assay at each concentration was replicated seven times. Antigen negative and antibody negative wells provided negative controls while KLH/anti-KLH wells were used as positive controls.
Serial dilutions of the test substance stock solutions were made with coating buffer containing 0.1% TWEEN 20 polysorbate to give 1000 ng/ml, 100 ng/ml, 10 ng/ml, 1 ng/ml, 0.1 ng/ml, and 0.01 ng/ml assay concentrations. Coating buffer w/0.1% TWEEN 20 polysorbate was used as the 0 ng/ml assay concentration. The test substance assay concentrations (190 μl each) were incubated with 10 μl of the protein A IgG ([…]) for one hour at room temperature. After the incubation period, 100 μl of the test substance-IgG mixture was transferred to the appropriate microtiter well. The microtiter wells had been previously coated with the optimized concentration of RH2703-BSA and the excess protein binding sites were blocked with 0.3 ml of a 1% BSA solution in coating buffer. The plates were incubated for an additional hour at room temperature.
After the second incubation the plates were washed and goat, anti-rabbit immunoglobulin conjugated to alkaline phosphatase (0.6 mg reconstituted with 1 ml 50% glycerol and subsequently diluted with 1:5000 with blocking solution Pierce Chemical Co) was added. The plates were incubated, washed and PNPP substrate added as described in Example 5. […]

Cc1cc(C)cc(C(=O)N(NC(=O)c2ccc(C(=O)O)cc2)C(C)(C)C)c1 [RH2651]
Detection limit [1]: 0.013 ng/mL
Sensitivity [1]: 0.001 ng
Sensitivity [2]: 0.22 ng
Detection limit [2]: 1.9 ng/mL

CCc1ccc(C(=O)NN(C(=O)c2cc(C)cc(C)c2)C(C)(C)C)cc1 [RH5992]
Detection limit [1]: 0.096 ng/mL and 0.106 ng/mL
Sensitivity [1]: 0.005 ng
Sensitivity [2]: 0.07 ng
Detection limit [2]: 0.66 ng/mL

COc1cccc(C(=O)NN(C(=O)c2cc(C)cc(C)c2)C(C)(C)C)c1C [RH2485]
Detection limit [1]: 0.482 ng/mL
Sensitivity [1]: 0.024 ng
Sensitivity [2]: 0.08 ng
Detection limit [2]: 1.8 ng/mL

CC(C)(C)N(NC(=O)c1ccc(Cl)cc1)C(=O)c1ccccc1 [RH0345]
Detection limit [1]: 5.10 ng/mL
Sensitivity [1]: 0.255 ng
Sensitivity [2]: 0.08 ng
Detection limit [2]: 0.75 ng/mL

Cc1cc(C)cc(C(=O)N(NC(=O)c2ccc(CC(=O)O)cc2)C(C)(C)C)c1 [RH2703]
Detection limit [1]: 0.031 ng/mL
Sensitivity [1]: 0.002 ng
Sensitivity [2]: 0.19 ng
Detection limit [2]: 1.7 ng/mL
